{"sequences": {"note": "The chains behind the UniProt entries cited, without tags or fusion partners. Where a name states a change or a piece, a line headed by the entry shows the natural chain unless it says otherwise.", "UniProt Q9UNA4": "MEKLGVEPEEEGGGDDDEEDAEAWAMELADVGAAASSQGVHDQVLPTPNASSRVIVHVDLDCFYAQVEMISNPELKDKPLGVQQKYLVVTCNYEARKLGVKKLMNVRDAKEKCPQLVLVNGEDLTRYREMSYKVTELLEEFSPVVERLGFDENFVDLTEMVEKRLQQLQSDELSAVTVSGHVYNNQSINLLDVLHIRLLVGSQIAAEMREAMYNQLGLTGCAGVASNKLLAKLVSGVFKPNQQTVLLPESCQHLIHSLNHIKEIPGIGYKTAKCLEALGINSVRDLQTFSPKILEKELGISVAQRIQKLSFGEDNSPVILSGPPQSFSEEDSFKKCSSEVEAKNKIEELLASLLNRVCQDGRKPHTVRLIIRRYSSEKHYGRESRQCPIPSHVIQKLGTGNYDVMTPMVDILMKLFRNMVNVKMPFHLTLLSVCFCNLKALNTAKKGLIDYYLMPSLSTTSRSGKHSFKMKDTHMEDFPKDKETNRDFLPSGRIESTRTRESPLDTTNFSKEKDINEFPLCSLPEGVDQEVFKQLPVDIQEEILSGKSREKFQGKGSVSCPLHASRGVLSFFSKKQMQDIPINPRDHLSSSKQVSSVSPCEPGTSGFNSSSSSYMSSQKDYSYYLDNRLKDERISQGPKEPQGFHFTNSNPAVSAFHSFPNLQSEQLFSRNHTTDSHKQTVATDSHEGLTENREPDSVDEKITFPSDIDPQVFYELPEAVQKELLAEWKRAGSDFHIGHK"}, "source": "PubChem BioAssay AID588590", "about": "(National Center for Advancing Translational Sciences (NCATS), 2011)", "note": "Among all 390,000 compounds or so, about 4,000 (1%) were called active. This list was built around the results that the source calls inconclusive (neither active nor inactive); the mix of calls is not that of the screen. The call rests on the fitted dose curve; in most records, active means well fitted inhibition curve with a large enough effect; inconclusive means small, poorly fitted or top-dose-only effect, or another doubt; inactive means no such curve, though single readings can be large or run the other way. Potencies beside an inconclusive call are fits to weak or partial responses and may not hold up. Potency means the concentration at half of the fitted maximal effect.", "data": [{"target": "DNA polymerase iota (Homo sapiens) (UniProt Q9UNA4)", "experiment": "qHTS for Inhibitors of Polymerase Iota", "settings": "Pol iota fluorescent replication assay, 10 min; series mostly up to 115 µM; activity, negative = inhibition: at the top concentration", "outline": "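Fluorescent replication assay read twice, at 0 min and 10 min after adding 50 nM (final) substrate. Enzyme (10 nM) and compounds were first incubated 15 min at room temperature; enzyme-free buffer wells were negative controls.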", "values": [{"smiles": "Cc1ccc(/C=C2\\Oc3cc(OCC(=O)NN)ccc3C2=O)o1", "Potency": "active: 79.4 µM"}, {"smiles": "CC(C)CCn1c(N2CCc3ccccc3C2)nc2c1c(=O)[nH]c(=O)n2C", "activity, negative = inhibition": "inactive: -2.52%"}, {"smiles": "COc1ccccc1N1CCN(C(=O)Cc2c(C(=O)O)[nH]c3ccc(Cl)cc23)CC1", "Potency": "inconclusive: 50.1 µM [inhibitor, partial curve, poor fit]"}, {"smiles": "CCOC(=O)c1c(-c2ccc(F)cc2)csc1NC(=O)CCN1CCOCC1", "Potency": "inconclusive: 70.8 µM [inhibitor, partial curve, poor fit]"}, {"smiles": "Cc1cc(C)cc(NC(=O)CSc2nnc(COc3ccccc3Cl)o2)c1", "activity, negative = inhibition": "inactive: 10%"}, {"smiles": "COc1cc(C2C(C(C)=O)=C(O)C(=O)N2CCc2c[nH]c3ccccc23)ccc1O", "note": "(configuration not stated)", "Potency": "inconclusive: 15.8 µM [inhibitor, partial curve, poor fit]"}, {"smiles": "O=C(Nc1c(F)cc(F)cc1Br)c1cc(S(=O)(=O)N2CCN(c3ccccn3)CC2)ccc1F", "Potency": "inconclusive: 35.5 µM [inhibitor, partial curve]"}, {"smiles": "CC(c1ccccc1)N1CC(C(=O)Nc2ccc(F)cc2)CC1=O", "note": "(configuration not stated)", "Potency": "inconclusive: 89.1 µM [inhibitor, partial curve, poor fit]"}, {"smiles": "CC1CCN(S(=O)(=O)c2ccc3ncn(CC(=O)Nc4ccccc4C(F)(F)F)c(=O)c3c2)CC1", "Potency": "inconclusive: 79.4 µM [inhibitor, single point]"}, {"smiles": "Cc1cc(O)ccc1N1C(=O)c2cccc3cc([N+](=O)[O-])cc(c23)C1=O", "Potency": "inconclusive: 70.8 µM [inhibitor, single point]"}, {"smiles": "O=c1c(-c2ccc3c(c2)OCCO3)coc2cc(O)cc(O)c12", "activity, negative = inhibition": "inactive: 13.5%"}, {"smiles": "O=C(N/N=C/c1cccc(O)c1)c1cc2c(ccc3ccccc32)o1", "Potency": "inconclusive: 44.7 µM [inhibitor, partial curve]"}, {"smiles": "Cc1ccc(NC(=O)CCCC(=O)O)c(-c2nc3ccccc3[nH]c2=O)c1", "Potency": "inconclusive: 79.4 µM [inhibitor, single point]"}, {"smiles": "COc1ccc2oc(C(=O)OCC(=O)Nc3ccccc3)c(C)c2c1", "Potency": "inconclusive: 28.2 µM [inhibitor, single point]"}, {"smiles": "O=c1oc(/C=C/c2ccc([N+](=O)[O-])s2)nc2ccccc12", "Potency": "inconclusive: 14.1 µM [inhibitor, full curve, poor fit]"}, {"smiles": "Cc1ccc(C(CC(=O)NCC2(c3ccccc3)CCCC2)c2ccccc2)c(O)c1", "note": "(configuration not stated)", "Potency": "inconclusive: 89.1 µM [inhibitor, single point]"}, {"smiles": "O=C(/C=C/c1ccc([N+](=O)[O-])cc1)Nc1cccc(C(=O)Nc2ccccc2C(=O)O)c1", "Potency": "inconclusive: 70.8 µM [inhibitor, single point]"}, {"smiles": "O=C(NCCc1ccccc1)c1ccc2c(c1)N(Cc1ccccc1)C(=O)c1ccccc1S2=O", "note": "(configuration not stated)", "activity, negative = inhibition": "inactive: -13.5%"}, {"smiles": "Cc1cccc(-c2nc3c(cnn3-c3ccccc3)c(=O)n2-c2cccc(Cl)c2)c1", "Potency": "inconclusive: 14.1 µM [inhibitor, partial curve, poor fit]"}, {"smiles": "COc1ccc(C2C(=O)N(C3CCCCCC3)CC(=O)N2CCc2ccccc2)cc1", "note": "(configuration not stated)", "activity, negative = inhibition": "inactive: -21.6%"}, {"smiles": "CCCCC1=CC2=C(c3ccco3)C(=O)C(C)(OC(=O)c3ccc(OC)cc3)C(=O)C2=CN1c1ccccc1", "note": "(configuration not stated)", "Potency": "inconclusive: 12.6 µM [inhibitor, full curve, poor fit]"}, {"smiles": "CCN(CC)S(=O)(=O)c1ccc2[nH]c(=O)cc(C(=O)Nc3cccc(C(C)=O)c3)c2c1", "Potency": "inconclusive: 44.7 µM [inhibitor, partial curve, poor fit]"}, {"smiles": "O=C(NC1CC1)c1ccc2c(c1)ncn2C1CCCC1", "activity, negative = inhibition": "inactive: 29.7%"}, {"smiles": "O=C(Nc1ccccc1)c1cn2ccccc2n1", "activity, negative = inhibition": "inactive: -19.4%"}, {"smiles": "O=C(Oc1ccc2ccc(=O)oc2c1)N1CCOCC1", "Potency": "inconclusive: 89.1 µM [inhibitor, single point]"}, {"smiles": "O=C(NCCOC(=O)c1ccc(F)cc1)c1ccc(F)cc1", "Potency": "inconclusive: 89.1 µM [inhibitor, single point]"}, {"smiles": "CCOc1cc(/C=N/NC(N)=O)ccc1OCC(=O)Nc1ccc(C)c(C)c1", "Potency": "inconclusive: 56.2 µM [inhibitor, partial curve, poor fit]"}, {"smiles": "O=C(CC(Nc1ccc(F)cc1)C(=O)O)c1ccccc1", "note": "(configuration not stated)", "Potency": "inconclusive: 14.1 µM [inhibitor, partial curve]"}, {"smiles": "CCOC(=O)c1c(-c2ccc(F)cc2)csc1NC(=O)CN1C(=O)NC2(CCCCC2C)C1=O", "note": "(configuration not stated)", "Potency": "inconclusive: 89.1 µM [inhibitor, single point]"}, {"smiles": "COc1ccc(C(=O)COC(=O)c2ccc3c(c2)OCO3)c(OC)c1", "Potency": "active: 79.4 µM"}, {"smiles": "Cc1ccc(NC(=O)c2c(C)oc3ccc(O)c(CN4CCCCC4)c23)cc1", "activity, negative = inhibition": "inactive: 26.3%"}, {"smiles": "COC(=O)CCC(=O)N1CCCC(C(=O)c2cc(F)ccc2F)C1", "note": "(configuration not stated)", "activity, negative = inhibition": "inactive: 71.4%"}, {"smiles": "Cc1nn(C)c2c1c(-c1ccccc1)cc(=O)n2C(C)C(=O)NCCc1ccc(Cl)cc1", "note": "(configuration not stated)", "activity, negative = inhibition": "inactive: 0.702%"}, {"smiles": "Cc1nn(C)c(C)c1N1C(=O)c2cccc3c(N)ccc(c23)C1=O", "activity, negative = inhibition": "inactive: -2.68%"}, {"smiles": "O=C(CSc1nnc(-c2cccnc2)n1Cc1ccco1)c1ccc(Cl)c(Cl)c1", "Potency": "inconclusive: 22.4 µM [inhibitor, full curve, poor fit]"}, {"smiles": "Cc1cccc(C(=O)Nc2ccc(C(=O)/C=C/c3cccs3)cc2)c1", "Potency": "inconclusive: 22.4 µM [inhibitor, partial curve, poor fit]"}, {"smiles": "O=C(N/N=C/C1=C(N2CCOCC2)C(=C\\c2ccccc2)/CC1)Nc1ccccc1", "activity, negative = inhibition": "inactive: -1.47%"}, {"smiles": "Cc1ccnc2nc(C(=O)OCC(=O)NC(=O)NCc3ccco3)nn12", "Potency": "inconclusive: 63.1 µM [inhibitor, single point]"}, {"smiles": "O=C(NCc1ccc(F)cc1)C1CC(=O)N(C2CCCCC2)C1", "note": "(configuration not stated)", "Potency": "inconclusive: 79.4 µM [inhibitor, partial curve, poor fit]"}, {"smiles": "CS(=O)(=O)N1CCC(C(=O)Nc2c(F)cccc2F)CC1", "Potency": "inconclusive: 3.98 µM [inhibitor, single point]"}, {"smiles": "N#Cc1sc2nc(C3CC3)cc(-c3ccccc3)c2c1N", "Potency": "inconclusive: 141 µM [inhibitor, partial curve, poor fit]"}, {"smiles": "CCOc1ccc(NC(=O)c2nnn(CC(=O)Nc3ccccc3OCC)c2N)cc1", "activity, negative = inhibition": "inactive: -11.6%"}]}]}
